Experimental data reported in publication PMC10163288.
Some of the results follow.

B1: il10ra_site1_sap_19_mot_HHH_b1_00999_000000080_0001_41_55_H_._HHH_b2_01341_0001_0000100003_0000001_0_0001 (protein)
chain: SSSSSSDEAREEAEELVEEAKEIEDPREALRLLQKAVRLALRGNDEELLQEIWELALRLSSSSSS
B2: il10ra_site1_sap_17_mot_HHH_b1_06788_af2_000000238_0001_19_36_H_._HHH_b1_06164_af2_0001_0000500015_0000001_0_0001 (protein)
chain: SSSSDEEERRLAELFVEASRLWDEGNPEEAEKVTRELEELARELGDEEAKISVEFLKALNSSSSS
B3: il10ra_site1_normal_mot_HHH_b1_01555_000000194_0001_1_18_H_._HHH_b1_01506_0001_0000500031_0000001_0 (protein)
chain: SSSSDLEEYVKLTERFAKALLKSGDPEAARRLLRAALDAAKRANDPELLERLEELLEEVEKSSSS
B4: il10ra_site1_normal_mot_HHH_b1_05056_000000217_0001_1_20_H_._HHH_b2_04285_0001_0000100002_0000001_0 (protein)
chain: SSSSDLEEEIERLEEELREARERGDKELALQLLLRLLRLAYETRDEELLRELWEIVRKLFSSSSS
B5: il10ra_site1_normal_mot_HHH_b1_00929_000000068_0001_1_20_H_._HHH_b2_07413_0001_0000400041_0000002_0 (protein)
chain: SSSSDILEEVWELARKVVELIENGNPEEARKLVEEIEELAEEFNNELVEFLARQLKIRIDSSSSS
B6: il10ra_site1_sap_20_mot_HHH_b1_02397_af2_000000085_0001_39_57_H_._HHH_b2_06748_af2_0001_0000600026_0000002_0_0001_af2pred_0001 (protein)
chain: SSSSSRVELAAHQAKHDAKAAGDEEAQEKVEEVEEALERGEISEQEALHLLAKILREITESSSSS
B7: il10ra_site1_sap_13_mot_HHH_b1_08411_af2_000000053_0001_1_20_H_._HHH_b2_01294_af2_0001_0000100012_0000002_0_0001 (protein)
chain: SSSSSDADEIYELLRRALELLANGNPEEARKVLEEAEELAEEAGNWTFRFAIELLQREANSSSSS
B8: il10ra_site1_normal_mot_HHH_b1_04771_000000013_0001_40_56_H_._HHH_b2_04957_af2_0001_0000100002_0000001_1 (protein)
chain: SSSSSEEVEEAVELSTKAFRLALRGNDEEAEEVLKEALKIAEEGNDPRIREVVEDLLQALSSSSS
B9: il10ra_site1_sap_21_mot_HHH_b2_00066_000000124_0001_1_17_H_._HHH_b1_00973_0001_0000400027_0000001_0_0001 (protein)
chain: SSSSDEEFEHTREVYEEALELYRRGNEEEAKELLEEAEKELEKNNNWITLFALRHLLRLIGSSSS
B10: il10ra_site1_normal_mot_2c1a291787c6f40772924d4e9068d803_0001_af2_000000187_0001_34_48_H_._HHH_b1_05549_af2_0001_0000900022_0000001_1_af2pred_dldesign_0_af2pred (protein)
chain: SSSSSKEDYDLAVRAYRLAKALGREDLVEEIARLYAELSRTGDPKYKERLEEILAALEAESSSSS
B11: il10ra_site1_normal_mot_HHH_b2_06497_000000202_0001_1_20_H_._HHH_b1_02857_0001_0000200011_0000001_0 (protein)
chain: SSSSDLNEEIYRLLRRVAELIRRGDEEEAERVLEEVKQLAEEANSPVFRFAVRQLEILLNSSSSS
B12: il10ra_site1_sap_19_mot_HHH_b1_06789_af2_000000041_0001_1_20_H_._HHH_b2_02212_af2_0001_0000300005_0000002_0_0001_af2pred_dldesign_0_af2pred (protein)
chain: SSSSSKEEIRAQTRYRLAAARELEDPAERELTLRVAEAEAKYLGDEELLAEIEEVRAELSSSSSS
B13: il10ra_site1_normal_mot_HHH_b1_08477_000000091_0001_40_57_H_._ems_p1-16H-GBL-16H-GABBL-16H_0045_0001_0001_0002_0001_0000300008_0000001_0 (protein)
chain: SSSSDYVEQAARFAEALARAHGDEEALEKVEEVEEALERGEISEQEALELLAEILRRIARSSSSS
B14: il10ra_site1_sap_13_mot_HHH_b1_03763_000000209_0001_22_38_H_._HHH_b1_02042_0001_0000100011_0000001_0_0001 (protein)
chain: SSSSSSRDELYELLERVLELLAQGNEEEAREVIKEARELAEELGNRVMLVNIRFLERAVNSSSSS
B15: il10ra_site1_sap_21_mot_HHH_b2_04873_000000007_0001_40_56_H_._HHH_b1_06271_0001_0000700043_0000001_0_0001_af2pred_0001 (protein)
chain: SSSSDEREERAVRLLLLSAKRVPDPKLREAALRLAEAAARALGDPELEELVEEVQRELEENSSSS
B16: il10ra_site1_sap_19_mot_HHH_b2_08004_000000101_0001_1_17_H_._HHH_b2_01013_af2_0001_0000100003_0000002_0_0001 (protein)
chain: SSSSDEEEVERLLEEAEEARKEGDPELVIRLLREAVQIAFRSRNPELLRRIWEVVKRLGKSSSSS
B17: il10ra_site1_normal_mot_49468d6c54d8157f7969f91124172a68_0001_af2_000000173_0001_37_51_H_._HEEHE_0126_af2_0001_0000100006_0000002_0_af2pred_0001 (protein)
chain: DLAEAIKIAVEIAAERYNVPSVTVEVHNGEVHVEIEGDDREARQLEKLAKLSARLLNVKLEVEVE
B18: il10ra_site1_normal_mot_HHH_b1_03031_af2_000000117_0001_17_33_H_._HHH_b2_07811_af2_0001_0000600010_0000002_0 (protein)
chain: SSSSDEEEVKELEEELEKAKEEGDKEKAREIVQELILLAARLRDEELSQKAIEAWAKLAQNSSSS
B19: il10ra_site1_normal_mot_HHH_b1_05326_000000242_0001_1_20_H_._HHH_b1_08480_0001_0000400036_0000001_1 (protein)
chain: SSSSSEELQEVLELSRHAFRLALHGNPEEARELLEEAIELAREAGNPRLLRALEDLLKILNSSSS
B20: il10ra_site1_normal_mot_HHH_b2_00277_af2_000000172_0001_1_17_H_._HHH_b2_03103_0001_0000100010_0000002_0_af2pred_0001 (protein)
chain: SSSSDEEELEKEIEELLEEAKKIEDPRELSYLLVRAFALAVEGRDPELEELVKKVAQELISSSSS
B21: il10ra_site1_normal_mot_HHH_b2_03328_af2_000000127_0001_1_19_H_._HHH_b1_03894_0001_0000100001_0000001_0 (protein)
chain: SSSSSSNELYELSREALELFANGNPEEAQRVVEEAIELAEELGNRVILFTLRHLLRVISSSSSSS
B22: il10ra_site1_normal_mot_39ab2cb694c8b9c1dc7e65c0d672c93e_0001_000000036_0001_53_65_H_._HHH_b2_05692_af2_0001_0000600025_0000002_0 (protein)
chain: SSSSDEEEEELRELVEEVERLIERNDREEALRVAAEALRLAFRARNPEVLQLLWELAKLLSSSSS
B23: il10ra_site1_normal_mot_HHH_b2_07731_000000003_0001_42_56_H_._HHH_b2_03545_0001_0000300038_0000001_0_af2pred_0001 (protein)
chain: SSSSDEVQEEVERLLEEARELFEKGNPQEAFRLIREAAEIAAENRDPEALKLVSKLAQELISSSS
B24: il10ra_site1_sap_15_mot_HHH_b1_04036_000000109_0001_1_15_H_._HHH_b2_00730_0001_0000100001_0000001_0_0001 (protein)
chain: SSSSDEEVEELLEQAKELLEEGNHEEAMRLAVEALRIAYRAKDPRLIQLVWEVIRELAELRSSSS

biological target: il10ra, Q13651; assay: yeast display titration

Apparent Kd, inactive:
B1 no binding seen
B2 no binding seen
B3 no binding seen
B4 no binding seen
B5 no binding seen
B6 no binding seen
B7 no binding seen
B8 no binding seen
B9 no binding seen
B10 no binding seen
B11 no binding seen
B12 no binding seen
B13 no binding seen
B14 no binding seen
B15 no binding seen
B16 no binding seen
B17 no binding seen
B18 no binding seen
B19 no binding seen
B20 no binding seen
B21 no binding seen
B22 no binding seen
B23 no binding seen
B24 no binding seen

Reprinted from above (five entries):
Apparent Kd, inactive:
B9 no binding seen
B10 no binding seen
B11 no binding seen
B12 no binding seen
B13 no binding seen
